Drawing on article PMC2939883, this text covers binding for 2 substances.

Amino acid sequences for entries named in this document (tags omitted). A change or cut given only in a name is not applied to a line headed by its entry.
UniProt F4I456: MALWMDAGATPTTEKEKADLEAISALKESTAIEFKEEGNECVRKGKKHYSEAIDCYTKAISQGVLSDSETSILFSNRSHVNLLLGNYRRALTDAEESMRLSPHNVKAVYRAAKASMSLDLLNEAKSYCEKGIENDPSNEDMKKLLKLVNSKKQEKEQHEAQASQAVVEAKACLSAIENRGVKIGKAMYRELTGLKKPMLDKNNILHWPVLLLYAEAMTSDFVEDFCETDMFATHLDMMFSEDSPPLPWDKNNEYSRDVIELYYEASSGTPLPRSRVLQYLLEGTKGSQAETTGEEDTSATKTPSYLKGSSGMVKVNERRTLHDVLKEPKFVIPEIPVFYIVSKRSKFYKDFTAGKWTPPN

The assay deals with TPR2-GST (Arabidopsis thaliana) (UniProt F4I456). Nature of the assay: pull-down; TPR1-CBD on chitin beads or TPR2-GST on Glutathione-Sepharose 4B beads (50 µl) incubated 60 min on ice with 1 µg purified Hsp90 or Hsp90ΔMEEVD in 20 mM HEPES pH 7.5, 20 mM KCl, 1 mM MgCl2, 0.01% NP-40, with no nucleotide, 5 mM ADP or 5 mM ATP; retained Hsp90 detected by immunoblot with R2 anti-Hsp90 antibody; both purified. Background: In western blotting, separated proteins are transferred to a membrane and probed.

No constants are given. Whether binding was seen depends on the method and setting. Binding can be weak; no strength is given.

As for “purified recombinant AtHsp90-2 (GST tag cleaved) (from UniProt P55737 1-699)”, the binding result is given as “binds”.

Turning to “Hsp90ΔMEEVD (GST tag cleaved) (from UniProt P55737 1-694) (domain or fragment)”, the binding entry is “no binding (tested: 1 µg Hsp90ΔMEEVD with 50 µl of beads)”.
